# In all, about 1,900 compounds were measured (“excess over highest single agent (ExcessHSA) synergy score, 6x6 matrix”: median about -83, lowest 2% from about -370 on). The list shows a part of the results.
# Tested on: NCI-H446
# Assay: excess over highest single agent (ExcessHSA) synergy score, 6x6 matrix; higher = less synergy (more negative = stronger synergy)
# Details: 72 h; CellTiter-Glo viability
row,Compound,excess over highest single agent
1,CC(=O)NC[C@H]1CN(c2ccc(N3CCOCC3)c(F)c2)C(=O)O1 + Cc1sc2c(c1C)C(c1ccc(Cl)cc1)=N[C@@H](CC(=O)OC(C)(C)C)c1nnc(C)n1-2 [NCGC00250412-19],21.9
2,Cc1nccn1CC1CCc2c(c3ccccc3n2C)C1=O (stereo not given) + Cc1sc2c(c1C)C(c1ccc(Cl)cc1)=N[C@@H](CC(=O)OC(C)(C)C)c1nnc(C)n1-2 [NCGC00250412-19],-25.4
3,COc1ccc2c(c1)c(CC(=O)OCC(=O)O)c(C)n2C(=O)c1ccc(Cl)cc1 + Cc1sc2c(c1C)C(c1ccc(Cl)cc1)=N[C@@H](CC(=O)OC(C)(C)C)c1nnc(C)n1-2 [NCGC00250412-19],-251
4,Cc1c2oc3c(C)ccc(C(=O)N[C@@H]4C(=O)N[C@H](C(C)C)C(=O)N5CCC[C@H]5C(=O)N(C)CC(=O)N(C)[C@@H](C(C)C)C(=O)O[C@@H]4C)c3nc-2c(C(=O)N[C@@H]2C(=O)N[C@H](C(C)C)C(=O)N3CCC[C@H]3C(=O)N(C)CC(=O)N(C)[C@@H](C(C)C)C(=O)O[C@@H]2C)c(N)c1=O + Cc1sc2c(c1C)C(c1ccc(Cl)cc1)=N[C@@H](CC(=O)OC(C)(C)C)c1nnc(C)n1-2 [NCGC00250412-19],-247
5,CC1(C)OC2=C(C(=O)c3ccccc3C2=O)[C@H](NCc2ccccc2)[C@H]1O + Cc1sc2c(c1C)C(c1ccc(Cl)cc1)=N[C@@H](CC(=O)OC(C)(C)C)c1nnc(C)n1-2 [NCGC00250412-19],-299
6,Nc1ncnc2c1ncn2[C@@H]1O[C@H](CO)C[C@H]1O + Cc1sc2c(c1C)C(c1ccc(Cl)cc1)=N[C@@H](CC(=O)OC(C)(C)C)c1nnc(C)n1-2 [NCGC00250412-19],-100
7,COc1cc2c(cc1Cc1cccc(Cl)c1F)c(=O)c(C(=O)O)cn2[C@H](CO)C(C)C + Cc1sc2c(c1C)C(c1ccc(Cl)cc1)=N[C@@H](CC(=O)OC(C)(C)C)c1nnc(C)n1-2 [NCGC00250412-19],-36.4
8,COc1ccc2cc3[n+](cc2c1OC)CCc1cc2c(cc1-3)OCO2 + Cc1sc2c(c1C)C(c1ccc(Cl)cc1)=N[C@@H](CC(=O)OC(C)(C)C)c1nnc(C)n1-2 [NCGC00250412-19],113
9,Cc1cc(OCCCc2c(C(=O)O)n(Cc3cccnc3)c3c(-c4c(COc5ccc(N6CCN([S+](C)(=O)[O-])CC6)cc5)nn(C)c4C)cccc23)cc(C)c1Cl + Cc1sc2c(c1C)C(c1ccc(Cl)cc1)=N[C@@H](CC(=O)OC(C)(C)C)c1nnc(C)n1-2 [NCGC00250412-19],-31.2
10,COc1cc(C(C)C)c2c(c1)S(=O)(=O)N(COc1cc(=O)n3cccc(OCCN4CCCCC4)c3n1)C2=O + Cc1sc2c(c1C)C(c1ccc(Cl)cc1)=N[C@@H](CC(=O)OC(C)(C)C)c1nnc(C)n1-2 [NCGC00250412-19],-90.3

# Reference: the supplement of paper PMC10077471
